For 42 sequences, binding signal results are on record in PMC7819943, “Rice protein-binding microarrays: a tool to detect cis-acting elements near promoter regions in rice”.

The chains behind the UniProt entries cited, without tags or fusion partners.
UniProt Q0JBA9, entry or part of it: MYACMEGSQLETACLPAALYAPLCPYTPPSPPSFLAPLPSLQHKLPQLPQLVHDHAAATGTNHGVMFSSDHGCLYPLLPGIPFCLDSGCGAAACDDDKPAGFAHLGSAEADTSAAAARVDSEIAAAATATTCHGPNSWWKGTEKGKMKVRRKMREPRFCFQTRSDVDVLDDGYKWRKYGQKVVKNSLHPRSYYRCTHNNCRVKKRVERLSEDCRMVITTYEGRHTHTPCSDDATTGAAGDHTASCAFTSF

The list shows a part of the results.

The experiment has as its target OsWRKY34 (Oryza sativa, UniProt Q0JBA9 1-250). The experiment can be described thus: protein-binding microarray (RPBM); PBS, 2% BSA, 51.3 ng/ul salmon testes DNA, 50 uM zinc acetate, 200 nM TF, 25 C, 1 h; high values mean tight binding. Particulars: protein: recombinant; tags: N-terminal polyhistidine and DsRed monomer fusion (pET32a); label: CyDye5-dUTP incorporated in the synthesized complementary strand; 3' TTTTT single-stranded linker to array surface; dsDNA, one strand shown. The gist of the method:
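Polyhistidine-tagged DsRed fusions of transcription factors, joined at the N-terminus, were expressed in E. coli BL21-CodonPlus and isolated on Ni–NTA. They were incubated at 200 nM for 1 h at 25 °C on a custom Agilent array, double-stranded and BSA-blocked, in PBS with 2% BSA, salmon testes DNA and 50 µM zinc acetate. The binding signal is per-feature fluorescence intensity (arbitrary units) read on an Axon 4000B scanner after washing.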
As to “GCAAACCATTTCCACCGCCACCGTCTCCTCCCGAATTCCGCGGAGTCACCTAGTGCAG”, the binding signal was 8760 fluorescence intensity (a.u.).

With “CCGTATCCTATCGTGCCCTATCCAAACACGCGCAAACACCCGGAGTCACCTAGTGCAG”, the binding signal is 8970 fluorescence intensity (a.u.).

On to “AAGTTGGTTTTTATAGGACGAGAGGAGTACATATTTTTTACGGAGTCACCTAGTGCAG”, for which the binding signal was 8180 fluorescence intensity (a.u.).

For the sequence “GGGATCATGATGGACAATGGAAACTCCAGCCTGTTTCTCTCGGAGTCACCTAGTGCAG”, the binding signal was 8320 fluorescence intensity (a.u.).

For the sequence “TCGTTCTGTTGCTTCCTTCTAGATTTTCTCCTCTGCCAATCGGAGTCACCTAGTGCAG”, the binding signal was 15200 fluorescence intensity (a.u.).

With “TCTCAGCGCTCTTTCTGATCACTGATCACAACTTCTCCTCCGGAGTCACCTAGTGCAG”, the binding signal is 9580 fluorescence intensity (a.u.).

As to “GCGCACTGGTGAAGTTTTTTTTTTGTTTGGTCACCTACGGCGGAGTCACCTAGTGCAG”, the binding signal is 9700 fluorescence intensity (a.u.).

As for “CTTTGGGTTATTAACCTTCTTGCGTTTGTTCGGTCGAATTCGGAGTCACCTAGTGCAG”, the binding signal is 8170 fluorescence intensity (a.u.).

In the case of “CTAGAATTTTTTTCTCCTTTTTTTTCAATGTGCATTTTCTCGGAGTCACCTAGTGCAG”, the binding signal was 8100 fluorescence intensity (a.u.).

Take “TTGCTCTTGTTCATCGCCATCCCTTCATGTGCAAGCCACTCGGAGTCACCTAGTGCAG”: the binding signal is 8140 fluorescence intensity (a.u.).

Turning to “GTAGGCGTGGCACGGGCGGCGACCACGCGGGCGCGCGCGCCGGAGTCACCTAGTGCAG”, the binding signal was 12900 fluorescence intensity (a.u.).

Regarding “GGCATGTCATTTTTTATTTTGTGGTTACCTAATGTTTTTCCGGAGTCACCTAGTGCAG”, the binding signal was 11800 fluorescence intensity (a.u.).

For the sequence “GATAAATATCTGCAGGGAGGTGTAGAGGTTGGTGGGTGGGCGGAGTCACCTAGTGCAG”, the binding signal is 8690 fluorescence intensity (a.u.).

In the case of “ACTCTTGCTTGCTCGCCTTGCCTACCCACGCGGCCACACGCGGAGTCACCTAGTGCAG”, the binding signal was 8120 fluorescence intensity (a.u.).

“GTGAAGAATAAAGTCAACGGTTGATTTCAAGAGATACTAACGGAGTCACCTAGTGCAG”: the binding signal was 10600 fluorescence intensity (a.u.).

Take “TGTGCCATCACCAATTCATGGCTACTACGCTGGCTACGCGCGGAGTCACCTAGTGCAG”: the binding signal was 8660 fluorescence intensity (a.u.).

On to “GTTTTCCACTTTTCCACTGTACGTCAGGTCAATCAGCCGCCGGAGTCACCTAGTGCAG”, for which the binding signal was 8630 fluorescence intensity (a.u.).

In the case of “GGGTCCCTGTGTCGCCAACCGTCGCGCCGCTGCTTGCATACGGAGTCACCTAGTGCAG”, the binding signal is 9460 fluorescence intensity (a.u.).

With “GCATACGTCCGTCTCCGAGTCAATTGATTTTTGTGTTTGCCGGAGTCACCTAGTGCAG”, the binding signal was 8280 fluorescence intensity (a.u.).

For “TTTGCCCACTTCTACCGTGCGGGTCCCACACTGGCATCCACGGAGTCACCTAGTGCAG”, the binding signal was 8300 fluorescence intensity (a.u.).

For “CTATACTATTAATACCTGGTCTCACATGTCATACACACACCGGAGTCACCTAGTGCAG”, the binding signal is 8760 fluorescence intensity (a.u.).

Take “CTCTCTCTCTCAGTGCTATTTTTTTACCGATCTTTTACTACGGAGTCACCTAGTGCAG”: the binding signal was 12100 fluorescence intensity (a.u.).

Turning to “AACCACCCCGCGTTTCCAGTCTCCACCACATCAACTCCCCCGGAGTCACCTAGTGCAG”, the binding signal was 10200 fluorescence intensity (a.u.).

Turning to “TCGTTCCACGTGCATTGACGTGACACTTATTTGATGTTGACGGAGTCACCTAGTGCAG”, the binding signal is 8230 fluorescence intensity (a.u.).

On to “AGGATGCATTTTTCTTGACCTGAATCATGCTTGCTTTGCACGGAGTCACCTAGTGCAG”, for which the binding signal is 8400 fluorescence intensity (a.u.).

With “ATATATTGTTTGTCACGCTATGTTTCCCATCATCATTCTTCGGAGTCACCTAGTGCAG”, the binding signal is 11200 fluorescence intensity (a.u.).

Consider “TGGTATGTGGAAGCTTCTAGAGGAAAAGGAGGAGGAGGTCCGGAGTCACCTAGTGCAG”, for which the binding signal is 10400 fluorescence intensity (a.u.).

As for “TCCACTATAAACCTGTCCGTATAATAAATCCTAGTCGTTCCGGAGTCACCTAGTGCAG”, the binding signal is 8650 fluorescence intensity (a.u.).

In the case of “TGTTGATTATTGTCTTCTGAAGATGAGCATGCTCTGCTCTCGGAGTCACCTAGTGCAG”, the binding signal is 8320 fluorescence intensity (a.u.).

Turning to “GCCTGGCCCATGCCCTCTCTGCTATAATCTGCACCCTGTCCGGAGTCACCTAGTGCAG”, the binding signal was 8960 fluorescence intensity (a.u.).

Take “AGTGGTTATATGGGCTGTGAAATTCGGATTATCCGCCAAACGGAGTCACCTAGTGCAG”: the binding signal is 8140 fluorescence intensity (a.u.).

For “ATATCTTCTTGGTTGTTGCCTATTTTATTTAAAACAAATTCGGAGTCACCTAGTGCAG”, the binding signal was 9960 fluorescence intensity (a.u.).

As for “CCTCACATTCTCTCTCCTTTACCATGTGTGTACTTAAAACCGGAGTCACCTAGTGCAG”, the binding signal was 11100 fluorescence intensity (a.u.).

As for “TAATTCCAAGCTTGTTTCACCGACCTGCCAAACTCGATTGCGGAGTCACCTAGTGCAG”, the binding signal was 9200 fluorescence intensity (a.u.).

For “GATGGCAACGGGATTAGATCACTGTAGATGATCCAAAAACCGGAGTCACCTAGTGCAG”, the binding signal is 8130 fluorescence intensity (a.u.).

For “ATCGCCACAGGTGTCGGCGATGGGGAGGGGAGGGAGAGGTCGGAGTCACCTAGTGCAG”, the binding signal is 12000 fluorescence intensity (a.u.).

On to “TTTGGTTTAGGTAGCGCATTTCTGCATTTCACTCTTGGTTCGGAGTCACCTAGTGCAG”, for which the binding signal is 13300 fluorescence intensity (a.u.).

For the sequence “GGCATTTTCCTTTGTTTTATGATTGCTTCTTCTTGTTTTTCGGAGTCACCTAGTGCAG”, the binding signal was 12500 fluorescence intensity (a.u.).

As to “TCTTTCTTTTTTATATGGTATATAAGGGTAGAATGGTCATCGGAGTCACCTAGTGCAG”, the binding signal was 8450 fluorescence intensity (a.u.).

For “GCTTTGTTTTCCTTGCTAGCCGGTGCTGTAGCATTTGCATCGGAGTCACCTAGTGCAG”, the binding signal is 9210 fluorescence intensity (a.u.).

As for “ATATGTCTACTTTGACTTTGGATTCACTTTACACAAAATTCGGAGTCACCTAGTGCAG”, the binding signal was 8480 fluorescence intensity (a.u.).

Turning to “TCTTCACCGGTTACCATTTCATATCCCGATCGCTGCTACTCGGAGTCACCTAGTGCAG”, the binding signal was 13200 fluorescence intensity (a.u.).
